Results: patent US20120219503A1 (GENE TECHNO SCIENCE, published 2012)
Results are given in words; binding and its absence hold for the method and conditions named. Some binding calls cover weakened binding; strength is not graded here.

Target: T1, hOPN5-BSA (also: conjugated to BSA, coupling site not given here)
T1 construct: RGD-containing synthetic peptide coupled to the carrier BSA and coated on ELISA or adhesion plates
T1 peptide: CVDTYDGRGDSVVYGLRS
Assay: ELISA, hOPN5-BSA coated on the plate
Method: Binding of Ch33E10 and Hu33E10-VH1/VL6 IgG1/κ antibodies to hOPN5-BSA was examined by ELISA. As an antigen, synthetic oligopeptide ([…] provided by Gene Techno Science) conjugated to bovine serum albumin (hOPN5-BSA) was used. In a typical experiment, an ELISA plate was coated with 100 μl/well of 1 μg/ml hOPN5-BSA in 0.2 M Na₂CO₃ buffer (pH 9.4) overnight at 4° C., washed with Wash Buffer, and blocked with 300 μl/well of Blocking Buffer for 1 hr at room temperature. After washing with Wash Buffer, samples appropriately diluted in ELISA Buffer were applied at 100 μl/well in the ELISA plate. After incubating the ELISA plate overnight at 4° C. and washing with Wash Buffer, bound antibodies were detected using 100 μl/well of 1/2,000-diluted HRP-conjugated goat anti-human γ chain polyclonal antibody (SouthernBiotech). After incubating for 1 hr at room temperature and washing with Wash Buffer, color development was performed by adding 100 μl/well of ABTS substrate and stopped with 100 μl/well of 2% oxalic acid. Absorbance was read at 405 nm.
Binding of Hu33E10-VH5/VL6, Hu33E10-VH7/VL6 and Hu33E10-VH7.8/VL6 antibodies to hOPN5-BSA was compared to that of Ch33E10 by ELISA as described in Section 5. […] In repeated experiments, Hu33E10-VH7/VL6 and Hu33E10-VH7.8/VL6 behaved similarly to each other for binding to hOPN5-BSA.

- binding: binds
B1: Hu33E10-VH5/VL6 IgG1/κ antibody (antibody, V domains shown)
VH: EVQLVESGGGLVQPGGSLRLSCAASGFTFTDYYMIWVRQAPGKGLEWLGFIRNKANGYTTEYSASVKGRFTISRDNAKNILYLQMNSLRAEDTAVYYCARGAYWGQGTMVTVSS
VL: DIVMTQSPLSLPVTPGEPASISCRSSQSIVHSNGNTYLEWYLQKPGQSPQLLIYRVSNRFSGVPDRFSGSGSGTDFTLKISRVEAEDVGVYYCFQGSFVPWTFGQGTKVEIK
